Assay [1] has as its target KDO5 from Flavobacterium sp. (L-lysine dioxygenase, C-4 regioselective) (Flavobacterium sp.) (UniProt J3BZS6). Briefly: crystal structure; X-ray structures of apo forms and of complexes with L-lysine, α-KG or products obtained by soaking; four molecules in the asymmetric unit; interfaces analysed with PISA; both purified.
In assay [2] the target is KDO1 from Catenulispora acidiphila (L-lysine dioxygenase, C-3 regioselective) (Catenulispora acidiphila) (UniProt C7QJ42). The assay is described as above.

Results are given in words; binding and its absence hold for the method and conditions named. Some entries that bind do so weakly or less than the wild type.

B1: KDO5 from Flavobacterium sp. (L-lysine dioxygenase, C-4 regioselective) (enzyme, UniProt J3BZS6 1-372, looked up)
chain: MKSQSIMSVERSAETSLTLEIPTSPLIIKITQQERNILSNVGNLLVKAFGNYENPDYIASLHLHAFQLLPERITRILSQFGSDFSAEQYGAIVFQGLIEVDQDDLGPTPPNWQGADYGKLNKYGFICSLLHGAVPSKPVQYYAQRKGGGLLHAVIPDEKMAATQTGSGSKTDLFVHTEDAFLSNQADFLSFLYLRNEERVPSTLYSIRSHGKMNPVMKKLFEPIYQCPKDANYNDEDVANSGPTASVLYGNRELPFIRFDAAEQIFNENAGQTSEALGNLMDFWDEAKTLINSDYIPNSGDLIFVNNHLCAHGRSAFIAGQRIENGEIIKCERRQMLRMMSKTSLIHIRSVTRTDDPYFIMEEHLGKIFDLD
notes: KDO5, iron(II)/alpha-ketoacid-dependent lysine dioxygenase of Flavobacterium sp; Cloned into pET-22b(+) with a hexa-histidine tail; Tetramer in solution; four molecules (two dimers) in the asymmetric unit; First ordered residue in the crystals is Ala13; also called K DiOxygenase 5; source: E. coli BL21(DE3), purified (Ni-NTA)
Consider B1, for which the binding entry in assay [1] is on record as “binds”.

B2: KDO1 from Catenulispora acidiphila (L-lysine dioxygenase, C-3 regioselective) (enzyme, UniProt C7QJ42 1-358, looked up)
chain: MKNLSAYEVYESPKTSGESRTEAVSEAAFESDPEVSAILVLTSSEASTLERVADLVTAHALYAAHDFCAQAQLAAAELPSRVVARLQEFAWGDMNEGHLLIKGLPQVRSLPPTPTSNVHAVAATTPMSRYQALINECVGRMIAYEAEGHGHTFQDMVPSAMSAHSQTSLGSAVELELHTEQAFSPLRPDFVSLACLRGDPRALTYLFSARQLVATLTTQEIAMLREPMWTTTVDESFLAEGRTFLLGFERGPIPILSGADDDPFIVFDQDLMRGISAPAQELQQTVIRAYYAERVSHCLAPGEMLLIDNRRAVHGRSIFAPRFDGADRFLSRSFIVADGSRSRHARSSFGRVVSARFS
notes: KDO1, iron(II)/alpha-ketoacid-dependent lysine dioxygenase of Catenulispora acidiphila; Cloned into pET-22b(+) with a hexa-histidine tail; Dimer in solution; four molecules (two dimers) in the asymmetric unit; First ordered residue in the crystals is Glu30; also called K DiOxygenase 1; source: E. coli BL21(DE3), purified (Ni-NTA)
Turning to B2, in assay [2], the binding result is on record as “binds”.

Values taken from article PMC6224419, “Structural Studies based on two Lysine Dioxygenases with Distinct Regioselectivity Brings Insights Into Enzyme Specificity within the Clavaminate Synthase-Like Family” (Scientific Reports, 2018).
